# Data published in PubChem BioAssay AID493014 (National Center for Advancing Translational Sciences (NCATS), 2011).
# The other results are listed elsewhere or left out. Further columns of the screen follow, without active or inactive calls. Most of these compounds were active or inconclusive in the main read-out, so they are no random draw. Potencies come from curve fits of mixed quality, noted in brackets.
# Assay: qHTS Assay to Find Inhibitors of Chronic Active B-Cell Receptor Signaling
# Conditions: ABC-DLBCL IkBa-CBG/CBR reporter, luminescence ratio (green luciferase fused to IkBa over red control in TMD8 lymphoma cells), 4 h
# Summary of the method: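 Cell line TMD8 (human ABC DLBCL), stably expressing tet-inducible CBG68-IkBa fusion and CBR; IMDM/0.5% FBS; cpd up to 46 uM; dox induction, 4 h, 37C/5% CO2; dual luminescence; green/red ratio; MG132 control.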
# [1] = measured here: CBR red luminescence, cell number
# [2] = measured here: IkBa-CBG green luminescence
SMILES,AC50 [1],AC50 [2]
COc1cc(NC(=O)c2cc([N+](=O)[O-])ccc2Br)ccc1NC(=O)c1ccco1,"1.46 µM [falling, full curve]",
O=C(O)c1cccc(Cn2c(Cl)c(/C=N/NC(=O)c3ccccc3)sc2=O)c1,"10 µM [falling, partial curve, poor fit]",
COC(=O)c1ccc(/C=C/c2ccc3cccc(OC(C)=O)c3n2)cc1,"0.103 µM [falling, full curve]",
COc1ccccc1OCCCOc1c(C)cc(C)cc1Br,"29.1 µM [rising, single point]",
COc1ccc2[nH]c(C(=O)Nc3ccc(C)c(F)c3)cc2c1,"3.98 µM [rising, partial curve, poor fit]",
COC(=O)c1sc(N)c(C(=O)OC)c1COC(=O)C12CC3CC(CC(O)(C3)C1)C2,"20 µM [rising, partial curve, poor fit]",
Cn1c(=O)cc(SCC(=O)NCc2cccnc2)c2ccccc21,"29.1 µM [rising, single point]",
NC(=O)Cc1ccc(Nc2nnc(-c3ccc(O)cc3)c3ccccc23)cc1,"29.1 µM [falling, single point]",
CC1CCN(C(=O)c2ccc(SCc3ccccc3F)c([N+](=O)[O-])c2)CC1,"1.84 µM [falling, partial curve, poor fit]",
O=C(Nc1ccccc1)c1cc2ccccc2o1,"1.84 µM [falling, full curve]",
C/C(=N\NC(=O)c1nn(C)cc1Br)c1cccc(NC(=O)c2ccncc2)c1,"8.2 µM [falling, partial curve]",
CCc1ccc(NC(=O)Nc2cccc(OC)c2)cc1,"8.91 µM [falling, partial curve]",
O=C1c2cccc3c([N+](=O)[O-])c(O)cc(c23)C(=O)N1Nc1ccccc1,"11.2 µM [falling, partial curve]",
CCC(=O)N(Cc1cc(=O)[nH]c2ccccc12)c1cccc(C)c1,"35.5 µM [falling, single point]",
CCCCN(C(=O)C(C)Oc1ccc(Br)cc1)c1c(N)n(Cc2ccccc2)c(=O)[nH]c1=O (stereo unspecified),"35.5 µM [falling, single point]",
COc1cccc2cc(C(=O)Nc3ccc(S(=O)(=O)NCC4CCCO4)cc3)c(=O)oc12 (stereo unspecified),"35.5 µM [rising, partial curve, poor fit]",
COc1ccc(CNC(=O)C[C@H]2C(=O)N(CCc3ccccc3)C[C@@H]2Cc2ccccc2)cc1,"35.5 µM [falling, single point]",
COc1ccc(CCSc2nnc(C3CCCCC3)n2N)cc1,"29.1 µM [falling, single point]",
c1ccc(-c2ccc(-c3nc(-c4cccnc4)no3)cc2)cc1,"6.31 µM [rising, single point]",
O=C(COC(=O)c1ccccc1C(=O)c1ccc(Cl)c([N+](=O)[O-])c1)NC1CCCCCC1,"7.31 µM [falling, partial curve]",
Cc1ccc(SCCNS(C)(=O)=O)cc1,"10.3 µM [rising, partial curve, poor fit]",
CCCCN1C(=O)C2(NNc3ccccc3O2)c2ccccc21 (stereo unspecified),"29.1 µM [falling, single point]",

SMILES,AC50 [1],AC50 [2]
CC1CCN(c2nc(N(C)c3ccccc3)nc(N)c2[N+](=O)[O-])CC1,"3.16 µM [rising, full curve]",
CC1CC1c1ccc(/C=C(\C#N)C(=O)Nc2ccc(Cl)cc2)o1 (stereo unspecified),"20.6 µM [falling, partial curve]",
O=C(CSc1nc2ccccc2c(=O)n1-c1ccccc1Cl)NCC1CCCO1 (stereo unspecified),"11.6 µM [rising, partial curve, poor fit]",
CCOC(=O)COc1c(OC)cc(Cl)cc1C1Nc2ccccc2C(=O)N1c1ccc(F)cc1 (stereo unspecified),"2.24 µM [falling, partial curve, poor fit]",
CCOc1cc(/C=N/n2c(C)nnc2C)ccc1O,"35.5 µM [falling, single point]",
COc1ccccc1/C=C/C(=O)c1ccccc1,"11.2 µM [falling, partial curve]",
CCCCNC(=O)c1onc(CSc2ccccc2C)c1C(=O)O,,"35.5 µM [rising, partial curve, poor fit]"
O=C(O)c1ccc(-c2nnc(-c3cccc(Br)c3)o2)cc1,"2.24 µM [falling, full curve]",
COc1ccc(N2C(=O)CSC23C(=O)Nc2ccccc23)cc1OC (stereo unspecified),"11.2 µM [rising, partial curve, poor fit]",
COc1cccc(-n2nc(-c3ccnn3-c3ccccc3)c(=O)n(C)c2=O)c1,"16.4 µM [falling, single point]",
Cc1ccc2nc(C)cc(C(=O)OCC(=O)c3ccc(Cl)c([N+](=O)[O-])c3)c2c1,"22.4 µM [falling, single point]",
COc1ccccc1C1=NNC(=Nc2cccc(S(=O)(=O)N(C)C)c2)SC1,"12.6 µM [falling, partial curve]",
Cc1ccc(N2CCN(CC(O)COc3cccc(C)c3)CC2)cc1 (stereo unspecified),"7.94 µM [rising, partial curve]",
N#Cc1cc(S(=O)(=O)c2ccccc2)c(N)[nH]c1=O,"23.1 µM [falling, partial curve]",
O=C(Nc1ccc2c(c1)CCC2)c1ccc(Br)s1,"14.1 µM [falling, single point]",
Cn1cc(-c2nnc(-c3ccccc3)o2)c2ccccc21,"1.12 µM [falling, full curve]",
CCOc1ccc(/C=N/NC(=O)c2cc3c(OC)cccc3[nH]2)cc1,"3.16 µM [falling, full curve]",
CCN1CCN(S(=O)(=O)c2ccc3c(c2)OCCO3)CC1,"0.00461 µM [falling, full curve]",
O=C(COC(=O)CNC(=O)c1cccc(Br)c1)Nc1nnc(-c2ccccc2)o1,"23.1 µM [falling, partial curve, poor fit]",
Cc1c(-c2cc(Br)ccc2O)nc2cc3c(cc2c1C)OCO3,"1.41 µM [rising, full curve]",
COc1cccc(NC(=O)CN(C)C(=O)c2cc(-c3cccc(Br)c3)nc3ccccc23)c1,"14.6 µM [falling, single point]",
CC(=O)c1cccc(NC(=O)c2cc(=O)[nH]c3ccccc23)c1,"6.31 µM [rising, single point]",

# Four entries out of the list, ordered by heavy-atom count, smallest number first:
SMILES,AC50 [1],AC50 [2]
O=C(Nc1ccc2c(c1)CCC2)c1ccc(Br)s1,"14.1 µM [falling, single point]",
CCN1CCN(S(=O)(=O)c2ccc3c(c2)OCCO3)CC1,"0.00461 µM [falling, full curve]",
Cc1c(-c2cc(Br)ccc2O)nc2cc3c(cc2c1C)OCO3,"1.41 µM [rising, full curve]",
CC1CCN(c2nc(N(C)c3ccccc3)nc(N)c2[N+](=O)[O-])CC1,"3.16 µM [rising, full curve]",

# Additional structures follow.

SMILES,AC50 [1],AC50 [2]
CCOC(=O)C(=Cc1ccc(-n2cncn2)cc1)C(=O)OCC,"10 µM [falling, partial curve, poor fit]",
O=[N+]([O-])c1ccc2nc(SCc3cn4cccnc4n3)[nH]c2c1,"5.62 µM [rising, partial curve, poor fit]",
CCOC(=O)c1sc(NC(=O)/C=C/c2c(F)cccc2Cl)nc1C,"0.0651 µM [falling, full curve]",
COc1ccc2nc(NC(=O)C3CSC4(C)CCC(=O)N34)sc2c1 (stereo unspecified),"13 µM [falling, partial curve, poor fit]",
O=C(CNC(=O)c1sc2ccccc2c1Cl)NCc1cccnc1,"5.01 µM [falling, partial curve]",
CCCCN(C)CCNC(=O)c1cc2c(-c3cccc(OC)c3)nn(C)c2s1,"35.5 µM [falling, single point]",
O=C(CCNc1cccc(C(F)(F)F)c1)c1ccco1,"29.1 µM [falling, single point]",
COC(=O)c1sc2ccccc2c1NC(=O)c1ccc(S(=O)(=O)N2CC(C)CC(C)C2)cc1 (stereo unspecified),"29.1 µM [rising, single point]",
OCCN(/C=N/c1nc(-c2ccc(Br)cc2)cs1)CCO,"1.64 µM [rising, full curve, poor fit]",
O=C(NNC(=O)c1cnccn1)c1ccc(Cl)cc1,"12.6 µM [falling, partial curve]",
CCOc1ccc(C(=O)Nc2ccccc2C(=O)O)cc1,"1.78 µM [falling, full curve]",
CCCCC[C@H](O)/C=C/[C@@H]1[C@@H](CCCCCCC(=O)O)[C@@H](O)C[C@H]1O,"9.2 µM [rising, partial curve]","2.82 µM [falling, full curve]"
NNC(=O)c1cccc(COc2ccc3c(c2)CCC3)c1,"16.4 µM [falling, partial curve]",
CCCCN(CC)CCNc1c(NC2CCN(C(=O)OCC)CC2)c(=O)c1=O,"0.82 µM [falling, full curve, poor fit]",
Cc1nnc2sc(SCC(=O)Nc3nccs3)nn2c1=O,"5.8 µM [falling, partial curve, poor fit]",
COc1cc(C(=S)N2CCCC2)cc(Cl)c1OCC(=O)Nc1ccc(C)cc1C,"0.146 µM [falling, single point]",
CC(=O)C(C(C)=O)c1c(Cl)c(O)c(O)c2c(C(=O)c3ccccc3)coc12,"35.5 µM [falling, partial curve, poor fit]",
COc1ccccc1NC(=O)COC(=O)c1c[nH]c2ccccc12,"0.326 µM [falling, partial curve, poor fit]",
O=C(CCC(=O)OCc1ccc(C(=O)Oc2ccccc2)cc1)Nc1cccc2ccccc12,"35.5 µM [rising, partial curve, poor fit]",
O=C(Nc1ccc(N2C(=O)C3CCCCC3C2=O)cc1Cl)c1cccs1 (stereo unspecified),"12.6 µM [falling, partial curve, poor fit]",
COC(=O)c1ccc2c(=O)n(CCCN3CCCC3=O)c(=S)[nH]c2c1,"6.51 µM [falling, full curve, poor fit]",
